These are yes or no findings as the source states them, for the method shown. In cells and extracts the contact can be indirect. Some entries that bind do so weakly or less than the wild type.
B1: CD81 (endogenous) (protein, UniProt P60033 1-236)
chain: MGVEGCTKCIKYLLFVFNFVFWLAGGVILGVALWLRHDPQTTNLLYLELGDKPAPNTFYVGIYILIAVGAVMMFVGFLGCYGAIQESQCLLGTFFTCLVILFACEVAAGIWGFVNKDQIAKDVKQFYDQALQQAVVDDDANNAKAVVKTFHETLDCCGSSTLTALTTSVLKNNLCPSGSNIISNLFKEDCHQKIDDLFSGKLYLIGIAAIVVAVIMIFEMILSMVLCCGIRNSSVY

By UniProt entry, the sequences of proteins in these tests, tags left out. Residues count along the entry.
UniProt P26660, residues 384-750: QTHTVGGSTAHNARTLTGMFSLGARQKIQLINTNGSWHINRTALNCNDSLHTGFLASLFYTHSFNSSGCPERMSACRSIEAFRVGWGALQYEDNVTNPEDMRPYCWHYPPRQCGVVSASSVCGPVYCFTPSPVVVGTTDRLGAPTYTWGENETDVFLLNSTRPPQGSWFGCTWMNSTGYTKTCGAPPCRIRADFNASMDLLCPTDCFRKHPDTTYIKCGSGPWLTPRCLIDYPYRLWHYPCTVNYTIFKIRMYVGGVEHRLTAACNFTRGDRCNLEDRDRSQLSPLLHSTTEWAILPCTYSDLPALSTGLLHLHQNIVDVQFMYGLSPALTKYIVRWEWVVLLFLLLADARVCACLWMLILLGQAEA
UniProt P08962: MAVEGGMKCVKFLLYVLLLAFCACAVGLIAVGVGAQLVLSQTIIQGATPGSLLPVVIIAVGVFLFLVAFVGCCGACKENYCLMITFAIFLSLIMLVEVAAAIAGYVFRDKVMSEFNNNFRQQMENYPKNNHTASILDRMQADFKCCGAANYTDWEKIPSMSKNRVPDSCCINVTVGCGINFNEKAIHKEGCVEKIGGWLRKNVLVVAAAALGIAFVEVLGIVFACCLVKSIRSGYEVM

Target: HCV E2 protein with a FLAG tag, from JC1 E2 FLAG virus (hepatitis C virus (Jc1)) (UniProt P26660)
Test: co-IP; anti-FLAG monoclonal antibody on agarose resin with lysates of Huh 7.5.1 cells infected with JC1 E2 FLAG virus (MOI 0.3, 72 hrs); Triton lysis buffer (40 mM HEPES pH 7.5, 100 mM KCl, 1 mM EDTA, 1 mM PMSF, 0.1% Triton X-100); 4°C, 2 hrs; Western blotting

Row | Molecule | binding
1 | CD63 (endogenous) (from UniProt P08962 1-238) | binds
2 | B1 | binds
